Test results: doi:10.1101/2024.07.09.602822
These are yes or no findings as the source states them, for the method shown. Binding seen in cells or lysates may run through a third protein. A yes stands for co-enrichment or nearness to the bait. Other partners may have been found.

By UniProt entry, the sequences of proteins in these tests, tags left out.
UniProt P12814: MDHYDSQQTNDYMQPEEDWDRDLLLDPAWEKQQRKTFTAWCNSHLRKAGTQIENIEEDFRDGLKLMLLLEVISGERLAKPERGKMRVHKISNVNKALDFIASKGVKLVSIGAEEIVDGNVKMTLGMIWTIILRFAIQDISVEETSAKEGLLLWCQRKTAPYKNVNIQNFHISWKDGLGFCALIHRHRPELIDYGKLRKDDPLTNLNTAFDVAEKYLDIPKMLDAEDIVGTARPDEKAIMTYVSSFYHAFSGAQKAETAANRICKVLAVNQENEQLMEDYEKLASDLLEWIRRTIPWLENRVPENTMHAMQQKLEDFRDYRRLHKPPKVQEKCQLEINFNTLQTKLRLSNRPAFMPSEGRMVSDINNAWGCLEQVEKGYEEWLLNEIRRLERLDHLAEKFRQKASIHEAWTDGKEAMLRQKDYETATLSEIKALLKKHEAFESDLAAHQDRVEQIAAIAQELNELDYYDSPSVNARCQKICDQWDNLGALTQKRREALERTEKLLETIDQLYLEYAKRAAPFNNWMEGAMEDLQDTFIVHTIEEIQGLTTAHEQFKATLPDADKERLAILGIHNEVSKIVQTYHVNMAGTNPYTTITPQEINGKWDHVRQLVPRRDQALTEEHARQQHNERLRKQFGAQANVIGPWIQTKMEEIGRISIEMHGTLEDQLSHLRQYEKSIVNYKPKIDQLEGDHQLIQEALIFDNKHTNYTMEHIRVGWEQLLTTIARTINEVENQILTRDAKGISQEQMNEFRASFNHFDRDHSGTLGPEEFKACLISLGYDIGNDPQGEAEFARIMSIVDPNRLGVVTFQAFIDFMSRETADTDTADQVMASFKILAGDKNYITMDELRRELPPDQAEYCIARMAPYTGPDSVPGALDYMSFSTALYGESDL
UniProt O00151: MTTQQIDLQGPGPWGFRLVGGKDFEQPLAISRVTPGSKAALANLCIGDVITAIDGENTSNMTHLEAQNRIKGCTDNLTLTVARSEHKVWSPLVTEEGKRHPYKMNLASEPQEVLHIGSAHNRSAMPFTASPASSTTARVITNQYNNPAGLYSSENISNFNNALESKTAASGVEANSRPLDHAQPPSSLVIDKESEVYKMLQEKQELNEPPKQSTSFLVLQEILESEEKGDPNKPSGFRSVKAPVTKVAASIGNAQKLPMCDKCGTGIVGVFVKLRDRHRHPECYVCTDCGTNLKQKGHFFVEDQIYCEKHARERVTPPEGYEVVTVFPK
UniProt P67936: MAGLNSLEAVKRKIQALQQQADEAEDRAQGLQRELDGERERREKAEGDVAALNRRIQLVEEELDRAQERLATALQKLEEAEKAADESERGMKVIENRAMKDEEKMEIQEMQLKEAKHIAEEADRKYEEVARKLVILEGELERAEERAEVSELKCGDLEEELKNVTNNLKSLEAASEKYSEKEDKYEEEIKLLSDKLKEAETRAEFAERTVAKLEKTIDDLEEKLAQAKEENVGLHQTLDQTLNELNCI

Columns and labels:
Assay in all cases: proximity labelling
ACTN1 fused with TurboID = ACTN1 fused with TurboID (UniProt P12814)
[1] = molecular target: ArgBP2 fused with TurboID
[2] = molecular target: PDLIM1 fused with TurboID (UniProt O00151)
TPM4 fused with TurboID = TPM4 fused with TurboID (UniProt P67936)

Measured: binding

B1: PFKM (Phosphofructokinase muscle type) (enzyme, UniProt P08237 1-780)
chain: MTHEEHHAAKTLGIGKAIAVLTSGGDAQGMNAAVRAVVRVGIFTGARVFFVHEGYQGLVDGGDHIKEATWESVSMMLQLGGTVIGSARCKDFREREGRLRAAYNLVKRGITNLCVIGGDGSLTGADTFRSEWSDLLSDLQKAGKITDEEATKSSYLNIVGLVGSIDNDFCGTDMTIGTDSALHRIMEIVDAITTTAQSHQRTFVLEVMGRHCGYLALVTSLSCGADWVFIPECPPDDDWEEHLCRRLSETRTRGSRLNIIIVAEGAIDKNGKPITSEDIKNLVVKRLGYDTRVTVLGHVQRGGTPSAFDRILGSRMGVEAVMALLEGTPDTPACVVSLSGNQAVRLPLMECVQVTKDVTKAMDEKKFDEALKLRGRSFMNNWEVYKLLAHVRPPVSKSGSHTVAVMNVGAPAAGMNAAVRSTVRIGLIQGNRVLVVHDGFEGLAKGQIEEAGWSYVGGWTGQGGSKLGTKRTLPKKSFEQISANITKFNIQGLVIIGGFEAYTGGLELMEGRKQFDELCIPFVVIPATVSNNVPGSDFSVGADTALNTICTTCDRIKQSAAGTKRRVFIIETMGGYCGYLATMAGLAAGADAAYIFEEPFTIRDLQANVEHLVQKMKTTVKRGLVLRNEKCNENYTTDFIFNLYSEEGKGIFDSRKNVLGHMQQGGSPTPFDRNFATKMGAKAMNWMSGKIKESYRNGRIFANTPDSGCVLGMRKRALVFQPVAELKDQTDFEHRIPKEQWWLKLRPILKILAKYEIDLDTSDHAHLEHITRKRSGEAAV
binds: all assays above
